Laboratory results: publication PMC3419192
Results are given in words; binding and its absence hold for the method and conditions named. Binding seen in cells or lysates may run through a third protein. Some binding calls cover weakened binding; strength is not graded here. For part of these data: Where a sequence is shown, tags or fusion partners need not be part of it.

Protein sequences, listed by entry. Tags and fused reporters are not part of them.
UniProt P23804: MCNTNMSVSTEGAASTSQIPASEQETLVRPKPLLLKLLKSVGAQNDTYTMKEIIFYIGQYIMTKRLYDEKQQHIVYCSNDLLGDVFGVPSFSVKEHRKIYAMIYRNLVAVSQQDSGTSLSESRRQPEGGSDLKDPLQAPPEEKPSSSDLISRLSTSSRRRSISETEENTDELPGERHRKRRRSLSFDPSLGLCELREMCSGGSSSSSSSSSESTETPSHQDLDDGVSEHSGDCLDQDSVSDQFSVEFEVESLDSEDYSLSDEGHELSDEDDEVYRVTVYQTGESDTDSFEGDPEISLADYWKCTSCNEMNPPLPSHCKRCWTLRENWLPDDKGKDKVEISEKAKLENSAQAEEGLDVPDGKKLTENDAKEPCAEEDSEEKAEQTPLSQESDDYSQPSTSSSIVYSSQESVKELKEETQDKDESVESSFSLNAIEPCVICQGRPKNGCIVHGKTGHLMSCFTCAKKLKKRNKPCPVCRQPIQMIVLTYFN

Key:
[1] = molecular target: T1, FLAG-necdin, full-length (pCMV-FLAG-Necdin) (UniProt P25233); assay: co-IP; protein A agarose beads with anti-CCAR1, anti-necdin or control IgG; 1 mg protein extract of transfected C2C12 or of primary myoblasts in RIPA buffer, overnight at 4 °C; wash buffer with 500 mM NaCl, 0.1% SDS, 1% NP-40; western blot
T1 sequence: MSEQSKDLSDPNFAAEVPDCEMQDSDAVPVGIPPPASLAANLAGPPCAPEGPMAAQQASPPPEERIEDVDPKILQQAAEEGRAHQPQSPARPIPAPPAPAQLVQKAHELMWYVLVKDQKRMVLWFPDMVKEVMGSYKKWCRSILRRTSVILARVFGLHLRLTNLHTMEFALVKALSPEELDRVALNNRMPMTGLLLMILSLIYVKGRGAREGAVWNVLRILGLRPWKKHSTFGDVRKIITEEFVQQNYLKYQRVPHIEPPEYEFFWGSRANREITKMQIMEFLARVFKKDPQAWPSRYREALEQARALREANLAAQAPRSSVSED

[2] = molecular target: T2, necdin, endogenous in primary myoblasts (mouse (endogenous in primary myoblasts of C57/Bl6 mice)) (UniProt P25233); assay: as above
T2 sequence: T1 sequence

[3] = molecular target: MDM2, endogenous in Tibialis anterior muscle (mouse (endogenous in Tibialis anterior muscle)) (UniProt P23804); assay: co-IP; Dynabeads Protein A with anti-CCAR1, anti-MDM2, anti-necdin or unspecific IgG; 1.5 mg extract of C2C12 transfected with pCMV-FLAG-Necdin, pCMV-Tag3b-Myc-MDM2 and pSG5-HA-CCAR1, or of Tibialis anterior of tgMlcNec mice, 5 h at 4 °C; western blot

Measured: binding

B1: CCAR1/CARP1, endogenous in mouse myogenic cells and muscle (protein, UniProt Q8CH18 1-1146)
chain: MAQFGGQKNPPWATQFTATAVSQPAALGVQQPSLLGASPTIYTQQTALAAAGLTTQTPANYQLTQTAALQQQAAAVLQQQYSQPQQALYSVQQQLQQPQQTILTQPAVALPTSLSLSTPQPAAQITVSYPTPRSSQQQTQPQKQRVFTGVVTKLHDTFGFVDEDVFFQLGAVKGKTPQVGDRVLVEATYNPNMPFKWNAQRIQTLPNQNQSQTQPLLKTPTAVIQPIVPQTTFGVQAQPQPQSLLQAQISAASITPLLQTQPQPLLQQPQQKAGLLQPPVRIVSQPQPARRLDPPSRFSGRNDRGDQVPNRKDDRSRERDRERRRSRERSPQRKRSRERSPRRERERSPRRVRRVVPRYTVQFSKFSLDCPSCDMMELRRRYQNLYIPSDFFDAQFTWVDAFPLSRPFQLGNYCNFYVMHREVESLEKNMAVLDPPDADHLYSAKVMLMASPSMEDLYHKSCALAEDPQDLRDGFQHPARLVKFLVGMKGKDEAMAIGGHWSPSLDGPNPEKDPSVLIKTAIRCCKALTGIDLSVCTQWYRFAEIRYHRPEETHKGRTVPAHVETVVLFFPDVWHCLPTRSEWETLSRGYKQQLVEKLQGERKKADGEQDEEEKDDGEVKEIATPTHWSKLDPKAMKVNDLRKELESRALSSKGLKSQLIARLTKQLKIEEQKEEQKELEKSEKEEEDEDDKKSEDDKEEEERKRQEEVERQRQERRYILPDEPAIIVHPNWAAKSGKFDCSIMSLSVLLDYRLEDNKEHSFEVSLFAELFNEMLQRDFGVRIYKSLLSLPEKEDKKDKEKKSKKEERKDKKEEREDDIDEPKPKRRKSGDDKDKKEDRDERKKEEKRKDDSKDDDETEEDNNQDEYDPMEAEEAEDEDDDREEEEVKRDDKRDVSRYCKDRPAKDKEKEKPQMVTVNRDLLMAFVYFDQSHCGYLLEKDLEEILYTLGLHLSRAQVKKLLNKVVLRESCFYRKLTDTSKDDENHEESEALQEDMLGNRLLLPTPTIKQESKDGEENVGLIVYNGAMVDVGSLLQKLEKSEKVRAEVEQKLQLLEEKTDEDGKTILNLENSNKSLSGELREVKKDLGQLQENLEVSENMNLQFENQLNKTLRNLSTVMDDIHTVLKKDNVKSEDRDEKSKENGSGV
binds: [1] | [2] | [3]
